The assay has as its target Human recombinant CD38 (Homo sapiens, UniProt P28907). Nature of the assay: CD38 hydrolase inhibition assay. To be noted: glycohydrolase activity, 0.2 ng/μL CD38, 100 μM ε-NAD substrate, fluorescence excitation 300 nm / emission 410 nm.

Sequences of proteins named here, by UniProt entry; tags and fusion partners are left off.
UniProt P28907, whole entry: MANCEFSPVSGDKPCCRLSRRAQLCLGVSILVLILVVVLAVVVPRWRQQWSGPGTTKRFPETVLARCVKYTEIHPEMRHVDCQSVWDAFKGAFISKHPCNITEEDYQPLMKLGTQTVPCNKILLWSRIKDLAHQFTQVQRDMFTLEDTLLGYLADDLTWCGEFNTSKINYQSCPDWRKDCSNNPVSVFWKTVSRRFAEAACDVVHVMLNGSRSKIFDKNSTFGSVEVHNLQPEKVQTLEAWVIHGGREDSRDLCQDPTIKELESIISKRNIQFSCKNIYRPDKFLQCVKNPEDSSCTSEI

Molecules are shown by their SMILES. pIC50: −log10 of the molar value. The structures given here were assigned with low confidence; some may be wrong.

In general, pIC50 refers to the IC50 on a negative log10 scale, so that one unit is a factor of ten. With `O=C(Nc1ccnc(C(F)(F)F)c1)c1cc(OC2CC2)cc(-n2ccnc2)c1`, the negative-log IC50 (pIC50) was 6.00 to 7.00.

For the origin of these results see US20260224561A1, “INHIBITORS OF CYCLIC ADP RIBOSE HYDROLASE AND METHODS OF USE THEREOF” (Flagship Pioneering Innovations VI, LLC, priority 2022, published 2026).
